Data published in PubChem BioAssay AID2685 (National Center for Advancing Translational Sciences (NCATS), 2010).
Some of the results follow. The main result of the screen is listed elsewhere. These columns were measured beside it and carry no call. The list favours compounds with an active or inconclusive main result. The note in brackets gives the kind of curve behind each potency; many fits are weak.

Assay: qHTS Assay for Lipid Storage Modulators in Drosophila S3 Cells;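 on cell number change: cells counted by Cell Tracker Red CMTPX staining in the red channel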
Details: BODIPY lipid droplet fluorescence, 18-24 h; for cell number change: measured here: cell count max response, cells fed with added oleic acid
Method in brief: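 Laser-scanning cytometry quantifies lipid droplet accumulation (500–530 nm total intensity; droplet/cell object ratio) in oleic acid-fed (400 uM added) Drosophila S3 cells treated with a concentration series. 20 uM Triacsin C defined 100% inhibition.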

[1] = measured here: lipid fluorescence (Fed channel) AC50, cells fed with added oleic acid
[2] = measured here: cell number channel AC50, cells fed with added oleic acid

In the case of `CCCC(=O)NC(c1ccccc1OC)c1ccc2cccnc2c1O` (configuration not stated), the cell number change is reported as -33.5%.

With `Cc1cc(NC(=O)CN2C(=O)NC(C)(CCc3ccccc3)C2=O)no1` (configuration not stated) the cell number change was -5.71% and the AC50 [1] was 1.3 µM [falling, full curve].

For `C=CCn1cnnc1SCC(=O)Nc1cccnc1Cl`, the cell number change was 10.8%.

With `Cc1cccc2[nH]c3c(=O)n(CCN4CCNCC4)cnc3c12` the cell number change was -8.68% and the AC50 [1] was 0.731 µM [rising, full curve, poor fit].

`Cc1cccc(N2CCN(C(=O)CCC(=O)N3CC(C)Oc4ccccc43)CC2)c1C` (configuration not stated) showed a cell number change of 13.3%.

With `S=C(Nc1ccc(CN2CCCCC2)cc1)Nc1cccc(Cl)c1Cl` the cell number change was 4.95%, the AC50 [2] was 6.51 µM [rising, single point] and the AC50 [1] was 29.1 µM [rising, single point].

In the case of `COc1ccc(NC(=O)NCc2cccnc2)c(OC)c1`, the cell number change is reported as 21.8% and the AC50 [1] is reported as 20.6 µM [rising, partial curve].

For `CC1Nc2ccc(C(=O)NC3CCCCC3)cc2NC1=O` (configuration not stated), the AC50 [1] was 29.1 µM [falling, single point].

`COc1ccccc1C(=O)NCC(=O)N/N=C/c1ccc2c(c1)OCO2` showed a cell number change of 13.8%.

With `CC1CC(C)(C)NC(=S)N1CCCC(=O)Nc1ccc(F)c(F)c1` (configuration not stated) the cell number change was 60.2%, the AC50 [2] was 16.4 µM [rising, partial curve] and the AC50 [1] was 29.1 µM [rising, single point].

For `Cc1cc(C)c(C(=O)CSc2nnc(-c3ccccc3Br)o2)cc1C`, the cell number change was 135%, the AC50 [2] was 0.164 µM [rising, full curve, poor fit] and the AC50 [1] was 0.103 µM [rising, full curve, poor fit].

For `COc1cc(/C=N\NC(=O)c2ccc(-c3ccccc3)cc2)cc(OC)c1O`, the cell number change was -68.5% and the AC50 [2] was 20.6 µM [falling, single point].

For `C/C(=N\NC(=O)COc1ccc([N+](=O)[O-])cc1)C(C)(C)C`, the cell number change was 19.8% and the AC50 [2] was 2.91 µM [rising, full curve, poor fit].

In the case of `Cc1ccccc1C(=O)NC(C)c1ccc2c(c1)CCCC2` (configuration not stated), the cell number change is reported as 8.62%.

In the case of `O=C(N/N=C/C(Cl)=C/c1ccc([N+](=O)[O-])cc1)C(=O)Nc1cccc(C(=O)O)c1`, the cell number change is reported as -10.8% and the AC50 [1] is reported as 0.146 µM [falling, full curve, poor fit].

With `COc1cc(OC)cc(C(=O)N[C@H](C(=O)OCC(N)=O)C(C)C)c1` the cell number change was -45.5% and the AC50 [2] was 18.4 µM [falling, single point].

For `O=C(CSc1nnc(CN2CCCCC2)n1-c1ccccc1)c1ccc2c(c1)OCO2`, the cell number change was 24.3% and the AC50 [1] was 29.1 µM [rising, partial curve, poor fit].

`C/C(CC(=O)Nc1cc(C)ccn1)=N\NC(=O)c1ccncc1` gave a cell number change of 10.9%.

In the case of `CN1C(=O)/C(=C/c2cn(CC(=O)N3CCCCC3)c3ccccc23)NC1=S`, the cell number change is reported as 45.9%, the AC50 [2] is reported as 25.9 µM [rising, single point] and the AC50 [1] is reported as 29.1 µM [rising, single point].

For `Oc1ccc(C[C@@H]2CNCCN2CCc2cccc(F)c2)cc1`, the cell number change was -32.1%, the AC50 [2] was 0.103 µM [falling, full curve, poor fit] and the AC50 [1] was 0.206 µM [falling, full curve].

Work on `O=C(COC(=O)C1CC1)NCCc1ccc(Cl)cc1` yielded a cell number change of -4.02%.

For `COc1cccc(/C=N/NC(=O)CNC(=O)c2ccc(S(=O)(=O)N3CCCC3)cc2)c1OC`, the cell number change was 21.5% and the AC50 [2] was 3.66 µM [rising, single point].

For `O=C(N/N=C/c1cc(Br)c(O)c(Br)c1)c1cccc(C(F)(F)F)c1`, the cell number change was -14.2% and the AC50 [2] was 6.51 µM [rising, single point].

`Cc1ccc(Cl)cc1NC(=O)Cn1cc(C(F)(F)F)cc(Cl)c1=O` showed a cell number change of 20.4%.

`Cc1ccccc1OCC(=O)NCCCNC(=O)c1ccccn1` showed a cell number change of 10%.

With `COc1cc2c(cc1OC)C(C)N(C(=O)c1cc3c(=O)oc4ccc(C)cc4c3s1)CC2` (configuration not stated) the cell number change was -45.1%, the AC50 [2] was 23.1 µM [falling, single point] and the AC50 [1] was 25.9 µM [falling, single point].

With `CCc1nnc(NC(=O)CSc2nnc(COc3ccccc3)n2-c2ccc(C)cc2)s1` the cell number change was 5.53% and the AC50 [1] was 0.731 µM [falling, single point].

For `CN(C)S(=O)(=O)N1CCN(c2ccc([N+](=O)[O-])cc2)CC1`, the cell number change was -3.3%, the AC50 [2] was 0.58 µM [falling, partial curve, poor fit] and the AC50 [1] was 0.231 µM [falling, full curve, poor fit].

With `CC1(C)CC2CC(C)(CN2C(=O)COC(=O)c2cc(Cl)cc(Cl)c2N)C1` (configuration not stated) the cell number change was -1.69% and the AC50 [1] was 18.4 µM [rising, single point].

For `Cc1ccc(-c2nc(CSc3nc4ccccc4c(=O)n3CCO)cs2)cc1`, the cell number change was 26.1% and the AC50 [1] was 14.6 µM [rising, partial curve].
